This passage reports binding signal results from paper PMC7862700.

This is a selection; strong and weak results do not stand in their true shares. At the low end of the ranking the order means little.

Holding throughout (assay): DAPPL (digital affinity profiling via proximity ligation, sequencing)
What all share (details): 10 mM Tris-HCl pH 7.5, 50 mM NaCl, 1 mM DTT, 4% glycerol, room temperature, 30 min; GST-TFs on glutathione beads, 16-mer random dsDNA library, 0.1% …; high values mean tight binding; double strand, one strand shown; scale: fold enrichment (6-mer frequency, TF over GST control)

One assay addresses T1, ELK1 (UniProt P19419).
T1 sequence: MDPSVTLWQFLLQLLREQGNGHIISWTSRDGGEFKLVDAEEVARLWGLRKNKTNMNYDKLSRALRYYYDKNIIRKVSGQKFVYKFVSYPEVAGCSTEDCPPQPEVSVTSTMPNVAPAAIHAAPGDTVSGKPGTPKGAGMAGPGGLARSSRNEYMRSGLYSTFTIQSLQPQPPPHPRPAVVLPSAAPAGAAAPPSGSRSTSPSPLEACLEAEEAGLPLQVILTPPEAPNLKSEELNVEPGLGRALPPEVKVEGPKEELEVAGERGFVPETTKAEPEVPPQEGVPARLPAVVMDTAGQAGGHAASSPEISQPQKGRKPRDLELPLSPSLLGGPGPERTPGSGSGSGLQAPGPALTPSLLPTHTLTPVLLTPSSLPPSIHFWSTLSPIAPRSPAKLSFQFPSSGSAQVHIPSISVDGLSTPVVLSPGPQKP

A further assay concerns the target T2, ELK3 (UniProt P41970).
T2 sequence: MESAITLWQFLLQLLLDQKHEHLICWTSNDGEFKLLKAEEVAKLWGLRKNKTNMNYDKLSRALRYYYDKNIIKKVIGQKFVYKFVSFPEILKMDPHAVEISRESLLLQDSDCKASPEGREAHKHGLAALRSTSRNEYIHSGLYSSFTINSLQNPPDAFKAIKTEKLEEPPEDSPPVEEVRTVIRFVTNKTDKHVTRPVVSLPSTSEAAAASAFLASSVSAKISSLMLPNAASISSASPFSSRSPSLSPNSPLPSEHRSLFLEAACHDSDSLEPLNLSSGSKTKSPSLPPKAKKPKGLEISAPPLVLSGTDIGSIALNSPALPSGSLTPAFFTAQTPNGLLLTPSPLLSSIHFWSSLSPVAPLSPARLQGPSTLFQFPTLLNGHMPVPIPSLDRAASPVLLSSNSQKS

For the next assay, the target named is T3, ETS2 (UniProt P15036).
T3 sequence: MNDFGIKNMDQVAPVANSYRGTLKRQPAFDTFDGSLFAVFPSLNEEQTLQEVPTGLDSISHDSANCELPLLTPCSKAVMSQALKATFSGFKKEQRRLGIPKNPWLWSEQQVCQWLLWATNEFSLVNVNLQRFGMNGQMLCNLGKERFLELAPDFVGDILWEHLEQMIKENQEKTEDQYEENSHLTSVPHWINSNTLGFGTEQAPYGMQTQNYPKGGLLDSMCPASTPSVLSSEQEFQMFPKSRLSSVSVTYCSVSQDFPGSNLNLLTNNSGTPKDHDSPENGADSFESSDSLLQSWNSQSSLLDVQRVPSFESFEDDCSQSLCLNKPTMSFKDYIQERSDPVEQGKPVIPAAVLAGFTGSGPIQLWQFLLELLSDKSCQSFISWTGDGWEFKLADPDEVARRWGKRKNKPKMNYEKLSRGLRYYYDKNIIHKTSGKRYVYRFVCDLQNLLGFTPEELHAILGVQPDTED

The target of a further assay is T4, ETV3 (UniProt P41162-2).
T4 sequence: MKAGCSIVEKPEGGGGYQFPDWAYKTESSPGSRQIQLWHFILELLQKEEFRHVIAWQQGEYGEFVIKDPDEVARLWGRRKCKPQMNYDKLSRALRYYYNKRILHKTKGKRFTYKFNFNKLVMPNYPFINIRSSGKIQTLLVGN

Take TCGAGC: the binding signal in the assay with ELK1 was 0.968; with ELK3, 1.01; with ETS2, 0.995.
Regarding GGTAAC, the binding signal with ELK1 came out at 1; with ETV3, 0.975.
Turning to AGGCCC, the binding signal in the assay with ELK1 stood at 0.909; with ELK3, 0.93; with ETS2 it was 0.926.
Consider GCCCGC, for which the binding signal in the assay with ELK1 turned out to be 1.15; in the assay with ETV3, 1.16.
Consider GAGCTT, for which the binding signal was 0.98 in the assay with ELK1, 1.02 with ELK3 and 0.994 with ETS2.
Consider GTTATA, for which the binding signal with ELK1 was 0.988; with ETV3, 0.987.
For CCTAGG, the binding signal with ELK1 is 0.914; with ELK3, 0.921; with ETS2, 0.963.
Consider GTAATG, for which the binding signal in the assay with ELK1 was 1.07; in the assay with ETV3, 0.999.
Consider TTTGTC, for which the binding signal worked out at 1.21 with ELK1 and 1.29 with ETV3.
On to TGAAAT, for which the binding signal with ELK1 was determined as 0.993; in the assay with ELK3, 0.973; in the assay with ETS2, 0.976.
On to TCTAGG, for which the binding signal turned out to be 0.964 with ELK1 and 1.12 with ETV3.
With ATCCGT, the binding signal with ELK1 is 0.967; with ELK3, 0.939; with ETS2, 0.969.
For CGACGG the same measures were 0.937, 0.987 and 0.982.
Regarding TCCTAA, the binding signal worked out at 1.34 with ELK1, 1.43 with ELK3 and 1.49 with ETS2.
For CAGTTC the same measures were 1.05, 0.968 and 0.991.
Turning to ATCCTC, the binding signal is 1.47 with ELK1, 1.36 in the assay with ELK3 and 1.41 with ETS2.
In the same order, the values of CGCAAT are 0.974, 0.947 and 0.946.
For the sequence ATGAAC, the binding signal with ELK1 and with ETV3 was 1.28 each time.
With TGATCA, the binding signal in the assay with ELK1 is 1.05; in the assay with ELK3 it was 1.18; with ETS2, 1.06.
In the same order, the values of CGGATC are 0.947, 0.916 and 0.984.
For AGGTCC the same measures were 0.97, 0.883 and 0.949.
ATATCC: the binding signal with ELK1 turned out to be 2.88; with ETV3, 2.89.
As for CTACTG, the binding signal was determined as 1.28 with ELK1 and 1.16 in the assay with ETV3.
As for GAATAT, the values for the binding signal in the assay with ELK1, with ELK3 and with ETV3 were 1.08, 1.12 and 1.12, respectively.
Consider CGCTAT, for which the binding signal in the assay with ELK1 came out at 0.988; with ETV3, 1.14.
Consider TGAAAG, for which the binding signal is 0.995 in the assay with ELK1, 0.87 with ELK3 and 0.966 with ETV3.
TATAGG: the binding signal stood at 1.06 in the assay with ELK1 and 1.17 with ETV3.
Consider GTCGAC, for which the values for the binding signal with ELK1, with ELK3 and in the assay with ETV3 were 0.987, 1.06 and 0.971, respectively.
As to TCTGGT, the binding signal with ELK1 and with ETV3 was 1.29 in each case.
Regarding CTCGGT, the binding signal came out at 0.978 with ELK1, 0.889 in the assay with ELK3 and 0.983 in the assay with ETV3.
On to ACCCAC, for which the binding signal with ELK1 is 1.24; with ETV3, 1.13.
As for GGTTAT, the binding signal came out at 0.997 in the assay with ELK1, 1.07 with ELK3 and 1.05 in the assay with ETV3.
For ATATCT the same measures were 1.19, 1.15 and 1.19.
Regarding GTACTA, the binding signal with ELK1 amounted to 1.06; with ETV3, 1.09.
